# This is one part of the list. The data scatter; read single values as rough.
# Amino acid sequences for entries named in this document (tags omitted). A change or cut given only in a name is not applied to a line headed by its entry. Residues count along the entry.
# UniProt Q13905: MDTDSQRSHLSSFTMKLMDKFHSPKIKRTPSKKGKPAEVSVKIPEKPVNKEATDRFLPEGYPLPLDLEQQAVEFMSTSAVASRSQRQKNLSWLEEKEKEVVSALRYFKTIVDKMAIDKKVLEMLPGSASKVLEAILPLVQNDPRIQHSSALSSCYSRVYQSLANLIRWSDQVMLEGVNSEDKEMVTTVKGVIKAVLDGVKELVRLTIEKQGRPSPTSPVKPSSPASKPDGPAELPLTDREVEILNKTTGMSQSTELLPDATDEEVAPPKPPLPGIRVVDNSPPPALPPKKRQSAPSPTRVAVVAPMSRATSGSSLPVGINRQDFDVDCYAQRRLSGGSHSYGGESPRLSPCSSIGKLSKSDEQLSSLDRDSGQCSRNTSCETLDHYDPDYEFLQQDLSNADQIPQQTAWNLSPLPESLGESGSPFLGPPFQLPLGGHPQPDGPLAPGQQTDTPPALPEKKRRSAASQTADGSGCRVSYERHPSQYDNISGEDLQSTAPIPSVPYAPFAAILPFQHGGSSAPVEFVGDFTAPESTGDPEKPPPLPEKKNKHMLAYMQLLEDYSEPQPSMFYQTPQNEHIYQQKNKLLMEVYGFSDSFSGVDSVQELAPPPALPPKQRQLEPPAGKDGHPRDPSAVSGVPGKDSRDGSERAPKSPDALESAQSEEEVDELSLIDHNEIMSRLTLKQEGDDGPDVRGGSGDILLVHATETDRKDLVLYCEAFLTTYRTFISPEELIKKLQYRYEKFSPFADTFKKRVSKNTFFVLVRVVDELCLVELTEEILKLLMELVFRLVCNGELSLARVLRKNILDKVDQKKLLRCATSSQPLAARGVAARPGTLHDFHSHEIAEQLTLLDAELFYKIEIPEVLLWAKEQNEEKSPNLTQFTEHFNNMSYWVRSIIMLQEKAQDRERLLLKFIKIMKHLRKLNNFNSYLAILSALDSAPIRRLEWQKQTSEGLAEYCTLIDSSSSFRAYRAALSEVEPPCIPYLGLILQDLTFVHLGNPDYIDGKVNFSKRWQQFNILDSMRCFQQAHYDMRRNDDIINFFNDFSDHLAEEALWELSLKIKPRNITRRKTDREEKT
# UniProt Q9H2T7: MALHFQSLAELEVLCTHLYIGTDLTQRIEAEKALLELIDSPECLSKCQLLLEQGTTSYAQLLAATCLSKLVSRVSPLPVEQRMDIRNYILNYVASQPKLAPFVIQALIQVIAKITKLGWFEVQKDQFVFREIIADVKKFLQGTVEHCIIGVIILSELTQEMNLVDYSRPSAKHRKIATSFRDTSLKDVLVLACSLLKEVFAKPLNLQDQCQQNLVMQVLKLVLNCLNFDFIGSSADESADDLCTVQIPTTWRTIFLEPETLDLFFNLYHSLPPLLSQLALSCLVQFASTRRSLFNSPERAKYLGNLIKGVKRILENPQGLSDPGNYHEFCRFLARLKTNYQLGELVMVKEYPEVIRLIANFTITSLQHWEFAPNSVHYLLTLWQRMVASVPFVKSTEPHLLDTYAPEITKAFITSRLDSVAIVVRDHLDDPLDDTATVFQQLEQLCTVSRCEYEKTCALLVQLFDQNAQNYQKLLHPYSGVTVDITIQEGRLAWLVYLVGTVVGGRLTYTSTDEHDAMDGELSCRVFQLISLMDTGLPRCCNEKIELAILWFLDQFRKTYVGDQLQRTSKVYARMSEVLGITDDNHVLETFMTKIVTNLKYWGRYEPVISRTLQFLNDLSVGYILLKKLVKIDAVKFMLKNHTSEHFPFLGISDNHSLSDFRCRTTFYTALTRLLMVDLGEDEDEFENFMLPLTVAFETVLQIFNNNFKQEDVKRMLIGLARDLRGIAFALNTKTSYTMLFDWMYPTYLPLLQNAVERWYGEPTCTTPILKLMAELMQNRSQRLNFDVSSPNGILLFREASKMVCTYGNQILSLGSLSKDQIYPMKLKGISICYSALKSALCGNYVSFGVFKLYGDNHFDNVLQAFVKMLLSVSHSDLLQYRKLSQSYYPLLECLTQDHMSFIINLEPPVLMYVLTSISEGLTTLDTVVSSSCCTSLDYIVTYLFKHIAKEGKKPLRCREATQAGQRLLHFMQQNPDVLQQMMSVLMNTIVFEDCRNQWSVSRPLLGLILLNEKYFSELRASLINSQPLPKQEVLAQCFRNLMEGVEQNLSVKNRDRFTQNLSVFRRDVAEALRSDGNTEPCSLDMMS
# UniProt Q5UIP0, 2120-2147: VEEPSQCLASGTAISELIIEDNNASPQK
# UniProt P98175: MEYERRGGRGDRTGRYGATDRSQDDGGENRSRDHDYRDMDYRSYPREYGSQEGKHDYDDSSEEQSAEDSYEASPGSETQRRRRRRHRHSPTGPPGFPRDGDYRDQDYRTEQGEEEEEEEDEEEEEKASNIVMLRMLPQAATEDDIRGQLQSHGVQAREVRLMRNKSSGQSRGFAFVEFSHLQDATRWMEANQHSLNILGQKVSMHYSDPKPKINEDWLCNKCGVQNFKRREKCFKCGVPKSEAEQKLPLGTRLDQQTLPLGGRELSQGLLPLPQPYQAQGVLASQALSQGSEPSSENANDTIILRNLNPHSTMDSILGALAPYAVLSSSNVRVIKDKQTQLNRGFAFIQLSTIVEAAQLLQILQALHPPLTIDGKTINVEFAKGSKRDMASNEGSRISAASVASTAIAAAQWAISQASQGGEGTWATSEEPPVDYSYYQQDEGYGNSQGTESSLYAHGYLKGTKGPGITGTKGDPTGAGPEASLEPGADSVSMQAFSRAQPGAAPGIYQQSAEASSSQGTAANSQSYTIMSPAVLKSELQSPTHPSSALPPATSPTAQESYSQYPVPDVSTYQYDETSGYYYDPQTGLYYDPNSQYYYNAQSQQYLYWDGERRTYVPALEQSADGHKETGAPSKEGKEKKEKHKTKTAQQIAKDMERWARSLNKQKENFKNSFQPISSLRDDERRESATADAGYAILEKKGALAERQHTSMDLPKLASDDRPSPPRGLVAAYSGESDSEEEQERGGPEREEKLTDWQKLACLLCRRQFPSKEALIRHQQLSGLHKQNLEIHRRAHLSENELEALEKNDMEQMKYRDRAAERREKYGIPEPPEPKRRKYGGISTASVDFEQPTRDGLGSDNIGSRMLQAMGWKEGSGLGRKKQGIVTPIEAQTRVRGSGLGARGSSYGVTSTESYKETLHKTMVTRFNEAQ
# UniProt Q96IZ5: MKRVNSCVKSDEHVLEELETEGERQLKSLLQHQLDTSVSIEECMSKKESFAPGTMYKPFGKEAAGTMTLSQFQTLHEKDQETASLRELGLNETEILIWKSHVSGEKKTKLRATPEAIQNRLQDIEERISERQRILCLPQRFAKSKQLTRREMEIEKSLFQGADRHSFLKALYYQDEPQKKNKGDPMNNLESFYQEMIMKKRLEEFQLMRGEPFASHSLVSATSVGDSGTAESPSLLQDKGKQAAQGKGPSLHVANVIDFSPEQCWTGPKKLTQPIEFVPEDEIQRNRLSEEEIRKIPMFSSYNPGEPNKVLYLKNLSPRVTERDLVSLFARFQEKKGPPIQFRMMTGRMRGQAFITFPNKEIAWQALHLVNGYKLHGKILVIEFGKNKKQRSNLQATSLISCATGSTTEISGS
# UniProt Q92546: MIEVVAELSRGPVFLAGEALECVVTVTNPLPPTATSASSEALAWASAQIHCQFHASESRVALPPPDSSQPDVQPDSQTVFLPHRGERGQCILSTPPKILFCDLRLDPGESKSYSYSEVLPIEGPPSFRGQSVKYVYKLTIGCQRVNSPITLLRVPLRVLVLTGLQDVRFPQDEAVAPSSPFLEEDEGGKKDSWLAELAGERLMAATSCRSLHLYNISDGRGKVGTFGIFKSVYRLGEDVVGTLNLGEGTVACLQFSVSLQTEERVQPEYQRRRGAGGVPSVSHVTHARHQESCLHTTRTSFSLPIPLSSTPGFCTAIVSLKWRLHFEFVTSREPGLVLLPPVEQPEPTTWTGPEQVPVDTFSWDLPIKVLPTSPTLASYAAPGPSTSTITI
# UniProt Q96E39: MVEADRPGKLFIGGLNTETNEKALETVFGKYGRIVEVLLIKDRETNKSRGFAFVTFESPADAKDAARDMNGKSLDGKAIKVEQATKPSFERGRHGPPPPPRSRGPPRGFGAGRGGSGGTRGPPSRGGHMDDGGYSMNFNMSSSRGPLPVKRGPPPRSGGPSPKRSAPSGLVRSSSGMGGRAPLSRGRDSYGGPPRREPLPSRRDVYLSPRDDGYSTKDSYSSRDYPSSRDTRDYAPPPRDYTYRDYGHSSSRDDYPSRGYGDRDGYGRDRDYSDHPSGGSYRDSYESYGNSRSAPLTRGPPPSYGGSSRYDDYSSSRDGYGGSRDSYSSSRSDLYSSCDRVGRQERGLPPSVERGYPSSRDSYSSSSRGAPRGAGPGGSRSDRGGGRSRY
# UniProt P28749: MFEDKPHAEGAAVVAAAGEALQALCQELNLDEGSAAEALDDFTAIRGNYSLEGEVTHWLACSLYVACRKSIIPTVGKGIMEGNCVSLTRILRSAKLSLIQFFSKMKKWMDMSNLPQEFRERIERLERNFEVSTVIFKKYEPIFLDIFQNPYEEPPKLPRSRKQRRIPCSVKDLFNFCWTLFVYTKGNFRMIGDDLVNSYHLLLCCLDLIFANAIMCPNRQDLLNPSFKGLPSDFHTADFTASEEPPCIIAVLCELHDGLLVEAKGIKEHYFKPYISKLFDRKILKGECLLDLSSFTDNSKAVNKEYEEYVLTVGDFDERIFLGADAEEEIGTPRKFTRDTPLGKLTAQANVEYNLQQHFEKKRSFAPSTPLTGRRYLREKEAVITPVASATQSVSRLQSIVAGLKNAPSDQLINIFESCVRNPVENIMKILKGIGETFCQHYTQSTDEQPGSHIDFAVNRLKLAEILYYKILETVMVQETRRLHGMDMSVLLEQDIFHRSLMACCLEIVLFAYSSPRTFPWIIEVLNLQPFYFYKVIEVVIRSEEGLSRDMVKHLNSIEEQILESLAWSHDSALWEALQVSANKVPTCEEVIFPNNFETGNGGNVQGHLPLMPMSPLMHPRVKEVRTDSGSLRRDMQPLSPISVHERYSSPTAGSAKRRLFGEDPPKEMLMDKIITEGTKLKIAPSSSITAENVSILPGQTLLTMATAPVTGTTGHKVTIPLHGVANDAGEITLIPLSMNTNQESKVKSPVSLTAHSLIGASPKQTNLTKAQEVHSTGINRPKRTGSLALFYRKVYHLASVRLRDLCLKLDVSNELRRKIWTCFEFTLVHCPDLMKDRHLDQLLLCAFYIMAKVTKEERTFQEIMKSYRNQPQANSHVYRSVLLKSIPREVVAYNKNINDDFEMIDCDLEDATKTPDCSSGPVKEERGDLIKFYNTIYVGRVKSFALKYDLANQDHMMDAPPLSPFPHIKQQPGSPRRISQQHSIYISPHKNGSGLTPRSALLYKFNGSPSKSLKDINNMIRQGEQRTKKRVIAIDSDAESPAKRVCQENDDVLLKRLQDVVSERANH
# UniProt Q15283: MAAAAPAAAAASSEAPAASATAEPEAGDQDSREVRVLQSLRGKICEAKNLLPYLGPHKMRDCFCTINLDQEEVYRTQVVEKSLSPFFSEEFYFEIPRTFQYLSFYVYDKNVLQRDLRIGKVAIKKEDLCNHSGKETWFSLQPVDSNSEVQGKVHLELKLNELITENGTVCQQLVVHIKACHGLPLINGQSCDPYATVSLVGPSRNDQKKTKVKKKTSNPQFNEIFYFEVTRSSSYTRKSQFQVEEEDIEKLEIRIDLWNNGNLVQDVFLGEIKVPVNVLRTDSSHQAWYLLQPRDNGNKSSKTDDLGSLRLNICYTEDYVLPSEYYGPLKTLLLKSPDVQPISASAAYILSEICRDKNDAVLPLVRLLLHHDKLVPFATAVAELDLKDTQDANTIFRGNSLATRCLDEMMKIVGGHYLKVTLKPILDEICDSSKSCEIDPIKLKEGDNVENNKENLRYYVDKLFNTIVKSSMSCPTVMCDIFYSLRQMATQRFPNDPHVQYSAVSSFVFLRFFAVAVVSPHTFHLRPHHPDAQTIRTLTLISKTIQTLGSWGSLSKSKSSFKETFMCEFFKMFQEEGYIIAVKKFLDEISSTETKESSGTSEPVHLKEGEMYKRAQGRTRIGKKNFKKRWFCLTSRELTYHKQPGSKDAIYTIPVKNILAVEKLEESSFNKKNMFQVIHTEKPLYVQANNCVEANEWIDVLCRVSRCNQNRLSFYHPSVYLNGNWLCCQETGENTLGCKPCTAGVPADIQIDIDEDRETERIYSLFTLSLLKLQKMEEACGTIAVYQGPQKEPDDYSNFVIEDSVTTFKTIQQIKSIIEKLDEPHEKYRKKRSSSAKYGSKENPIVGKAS
# UniProt Q8IZV5: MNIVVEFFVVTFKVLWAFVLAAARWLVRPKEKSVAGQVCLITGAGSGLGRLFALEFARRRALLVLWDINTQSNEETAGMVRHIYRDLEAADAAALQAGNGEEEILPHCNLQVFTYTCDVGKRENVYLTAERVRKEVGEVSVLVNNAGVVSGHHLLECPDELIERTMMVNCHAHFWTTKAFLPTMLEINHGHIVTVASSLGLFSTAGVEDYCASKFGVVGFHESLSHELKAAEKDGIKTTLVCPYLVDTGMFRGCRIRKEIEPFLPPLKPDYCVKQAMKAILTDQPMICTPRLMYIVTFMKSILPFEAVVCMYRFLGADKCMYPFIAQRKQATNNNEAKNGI
# Tests used:
# [1] = compound: ClCC(=O)N[C@@H]1CCCc2ccccc12; assay: log2 mean competition ratio of IA-DTB cysteine labelling (DMSO/compound) (log2 ratio); higher = stronger cysteine engagement by compound; details: treatment time: 4 h, cell line lysate: HEK293T
# Description: (§1)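 IA-DTB competitive cysteine chemoproteomics in HEK293T RIPA lysate. Lysates were treated with compound 29 or 30 at 50 or 200 µM for 4 h, then IA-DTB (500 µM, 1 h), trypsin-digested, NeutrAvidin-enriched and analysed by diaPASEF. Competition ratio = intensity DMSO / intensity compound (n=4 treated, n=64 DMSO); binding: mean log2 CR ≥ 1 and p ≤ 0.05 plus QC filters. Target is the cysteine site.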
# [2] = compound: ClCC(=O)N[C@H]1CCCc2ccccc12; assay: as above; details: treatment time: 4 h, cell line lysate: HEK293T
# Description: as §1
target,measurement,setting,value
RAPGEF1 C351 (UniProt Q13905),log2 mean competition ratio,[1]; 50 µM,0.0265
same,log2 mean competition ratio,[1]; 200 µM,-0.0963
same,log2 mean competition ratio,[2]; 50 µM,-0.0636
same,log2 mean competition ratio,[2]; 200 µM,0.216
RIMS4 C164,log2 mean competition ratio,[1]; 50 µM,0.351
same,log2 mean competition ratio,[1]; 200 µM,-0.214
same,log2 mean competition ratio,[2]; 50 µM,-0.431
same,log2 mean competition ratio,[2]; 200 µM,-0.0635
RALGAPA1 C1428 (UniProt Q6GYQ0),log2 mean competition ratio,[1]; 50 µM,-0.0753
same,log2 mean competition ratio,[1]; 200 µM,-0.165
same,log2 mean competition ratio,[2]; 50 µM,0.768
same,log2 mean competition ratio,[2]; 200 µM,-0.033
RANBP17 C1038 (UniProt Q9H2T7),log2 mean competition ratio,[1]; 200 µM,-0.107
same,log2 mean competition ratio,[2]; 50 µM,0.00858
same,log2 mean competition ratio,[2]; 200 µM,0.0025
RIF1 C1155 (UniProt Q5UIP0),log2 mean competition ratio,[1]; 50 µM,-0.0175
same,log2 mean competition ratio,[1]; 200 µM,0.0316
same,log2 mean competition ratio,[2]; 50 µM,-0.126
same,log2 mean competition ratio,[2]; 200 µM,0.108
RANBP2 C2696 (UniProt P49792),log2 mean competition ratio,[1]; 50 µM,0.211
same,log2 mean competition ratio,[1]; 200 µM,0.191
same,log2 mean competition ratio,[2]; 50 µM,0.0229
same,log2 mean competition ratio,[2]; 200 µM,0.215
RIN2 C802,log2 mean competition ratio,[1]; 200 µM,-0.175
same,log2 mean competition ratio,[2]; 200 µM,0.129
RBM10 C219 (UniProt P98175),log2 mean competition ratio,[1]; 50 µM,-0.19
same,log2 mean competition ratio,[1]; 200 µM,0.0776
same,log2 mean competition ratio,[2]; 50 µM,-0.316
same,log2 mean competition ratio,[2]; 200 µM,0.196
RBM41 C136 (UniProt Q96IZ5),log2 mean competition ratio,[1]; 50 µM,0.133
same,log2 mean competition ratio,[1]; 200 µM,0.225
same,log2 mean competition ratio,[2]; 50 µM,-0.151
same,log2 mean competition ratio,[2]; 200 µM,0.171
RGP1 C208 (UniProt Q92546),log2 mean competition ratio,[1]; 200 µM,0.164
same,log2 mean competition ratio,[2]; 50 µM,0.158
same,log2 mean competition ratio,[2]; 200 µM,0.101
RBM45 C90 (UniProt Q8IUH3),log2 mean competition ratio,[1]; 50 µM,-0.229
same,log2 mean competition ratio,[1]; 200 µM,-0.0327
same,log2 mean competition ratio,[2]; 50 µM,-0.444
same,log2 mean competition ratio,[2]; 200 µM,-0.0856
RNASEH2B C7,log2 mean competition ratio,[1]; 50 µM,-0.211
same,log2 mean competition ratio,[1]; 200 µM,-0.00111
same,log2 mean competition ratio,[2]; 50 µM,0.265
same,log2 mean competition ratio,[2]; 200 µM,0.279
RARS1 C638,log2 mean competition ratio,[1]; 50 µM,0.498
same,log2 mean competition ratio,[1]; 200 µM,-0.0897
same,log2 mean competition ratio,[2]; 50 µM,0.233
same,log2 mean competition ratio,[2]; 200 µM,-0.3
RIF1 C2126 (UniProt Q5UIP0),log2 mean competition ratio,[1]; 50 µM,-0.315
same,log2 mean competition ratio,[1]; 200 µM,0.0106
same,log2 mean competition ratio,[2]; 50 µM,0.0602
same,log2 mean competition ratio,[2]; 200 µM,-0.286
RBMXL1 C338 (UniProt Q96E39),log2 mean competition ratio,[1]; 50 µM,0.127
same,log2 mean competition ratio,[1]; 200 µM,0.0859
same,log2 mean competition ratio,[2]; 50 µM,0.235
same,log2 mean competition ratio,[2]; 200 µM,0.263
RAF1 C637 (UniProt P04049),log2 mean competition ratio,[1]; 50 µM,-0.138
same,log2 mean competition ratio,[1]; 200 µM,-0.0826
same,log2 mean competition ratio,[2]; 50 µM,0.233
same,log2 mean competition ratio,[2]; 200 µM,-0.197
RBL1 C288 (UniProt P28749),log2 mean competition ratio,[1]; 50 µM,-0.272
same,log2 mean competition ratio,[2]; 50 µM,0.0834
same,log2 mean competition ratio,[2]; 200 µM,0.407
RBM28 C125 (UniProt Q9NW13),log2 mean competition ratio,[1]; 50 µM,-0.00699
same,log2 mean competition ratio,[1]; 200 µM,-0.00901
same,log2 mean competition ratio,[2]; 50 µM,-0.0918
same,log2 mean competition ratio,[2]; 200 µM,0.00698
RASA2 C405 (UniProt Q15283),log2 mean competition ratio,[1]; 50 µM,-0.0323
same,log2 mean competition ratio,[1]; 200 µM,-0.0132
same,log2 mean competition ratio,[2]; 50 µM,0.847
same,log2 mean competition ratio,[2]; 200 µM,0.319
RIPOR1 C1191 (UniProt Q6ZS17),log2 mean competition ratio,[1]; 50 µM,-0.159
same,log2 mean competition ratio,[1]; 200 µM,0.161
same,log2 mean competition ratio,[2]; 50 µM,-0.031
same,log2 mean competition ratio,[2]; 200 µM,0.0621
RHOC C159 (UniProt P08134),log2 mean competition ratio,[1]; 50 µM,0.177
same,log2 mean competition ratio,[1]; 200 µM,0.0872
same,log2 mean competition ratio,[2]; 50 µM,-0.194
same,log2 mean competition ratio,[2]; 200 µM,0.000361
RERE C395 (UniProt Q9P2R6),log2 mean competition ratio,[1]; 50 µM,-0.0963
same,log2 mean competition ratio,[1]; 200 µM,0.284
same,log2 mean competition ratio,[2]; 50 µM,-0.184
same,log2 mean competition ratio,[2]; 200 µM,0.26
RDH10 C320 (UniProt Q8IZV5),log2 mean competition ratio,[1]; 200 µM,0.396
same,log2 mean competition ratio,[2]; 50 µM,0.628
same,log2 mean competition ratio,[2]; 200 µM,0.207

# Five entries picked at random from the list so far, as already listed:
target,measurement,setting,value
RGP1 C208 (UniProt Q92546),log2 mean competition ratio,[1]; 200 µM,0.164
RBM10 C219 (UniProt P98175),log2 mean competition ratio,[1]; 50 µM,-0.19
RBM45 C90 (UniProt Q8IUH3),log2 mean competition ratio,[1]; 50 µM,-0.229
RIF1 C1155 (UniProt Q5UIP0),log2 mean competition ratio,[1]; 50 µM,-0.0175
RBM10 C219 (UniProt P98175),log2 mean competition ratio,[2]; 200 µM,0.196
